# According to PMC10866885:
# Sequences of proteins named here, by UniProt entry; tags and fusion partners are left off. A change or cut given only in a name is not applied to a line headed by its entry. A line that says so, or that is headed by a name, gives the form on record, which may keep a tag or linker.
# VEGFR2 C482R mutant tagged with mCherry (P35968, form named): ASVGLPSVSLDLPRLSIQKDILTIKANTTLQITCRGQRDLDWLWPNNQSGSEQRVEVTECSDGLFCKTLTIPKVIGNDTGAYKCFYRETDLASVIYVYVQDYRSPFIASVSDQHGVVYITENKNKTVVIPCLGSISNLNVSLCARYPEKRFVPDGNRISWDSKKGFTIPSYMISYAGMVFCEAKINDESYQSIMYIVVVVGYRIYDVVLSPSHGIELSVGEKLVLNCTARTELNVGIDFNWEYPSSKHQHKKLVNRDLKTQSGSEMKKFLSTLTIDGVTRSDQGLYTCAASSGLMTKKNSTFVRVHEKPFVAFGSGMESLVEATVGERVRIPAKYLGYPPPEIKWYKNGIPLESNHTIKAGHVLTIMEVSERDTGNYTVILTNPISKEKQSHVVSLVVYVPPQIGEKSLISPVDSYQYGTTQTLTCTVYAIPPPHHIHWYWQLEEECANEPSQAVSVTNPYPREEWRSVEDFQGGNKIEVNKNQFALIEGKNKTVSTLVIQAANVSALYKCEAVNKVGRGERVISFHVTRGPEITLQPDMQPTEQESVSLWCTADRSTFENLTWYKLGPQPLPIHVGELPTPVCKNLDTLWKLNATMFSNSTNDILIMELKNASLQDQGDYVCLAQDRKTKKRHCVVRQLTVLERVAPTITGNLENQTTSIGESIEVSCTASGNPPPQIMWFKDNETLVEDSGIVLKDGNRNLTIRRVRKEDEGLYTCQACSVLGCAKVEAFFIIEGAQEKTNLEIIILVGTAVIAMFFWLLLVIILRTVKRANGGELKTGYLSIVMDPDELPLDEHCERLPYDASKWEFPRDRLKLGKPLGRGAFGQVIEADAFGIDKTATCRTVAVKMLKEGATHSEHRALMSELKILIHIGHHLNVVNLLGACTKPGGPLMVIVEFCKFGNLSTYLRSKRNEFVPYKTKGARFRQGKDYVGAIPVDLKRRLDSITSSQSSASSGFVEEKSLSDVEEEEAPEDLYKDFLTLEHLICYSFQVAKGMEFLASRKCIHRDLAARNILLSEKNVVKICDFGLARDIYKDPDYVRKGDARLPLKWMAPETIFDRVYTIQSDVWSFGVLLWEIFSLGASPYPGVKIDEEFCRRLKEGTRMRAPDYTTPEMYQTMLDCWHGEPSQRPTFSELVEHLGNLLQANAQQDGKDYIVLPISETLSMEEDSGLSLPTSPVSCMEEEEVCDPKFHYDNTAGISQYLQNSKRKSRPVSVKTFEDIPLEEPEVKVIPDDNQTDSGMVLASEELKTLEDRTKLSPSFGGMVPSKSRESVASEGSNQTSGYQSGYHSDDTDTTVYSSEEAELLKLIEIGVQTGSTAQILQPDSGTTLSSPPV
# Results are given in words; binding and its absence hold for the method and conditions named. Some binding calls cover weakened binding; strength is not graded here.
# Biological target: VEGFR2 C482R mutant tagged with mCherry (human) (UniProt P35968)
# Experiment: FRAP (diffusion coefficient on the plasma membrane); mCherry-fused receptor in transiently transfected, serum-starved CHO cells, without VEGF165 (for the GPA controls no ligand is named); room temperature; oligomeric state derived from D_confocal against monomer and dimer controls
substance,measurement,value
VEGFR2 C482R mutant tagged with mCherry (from UniProt P35968 20-1356) (receptor),binding,binds
